No constants are given. Whether binding was seen depends on the method and setting. In cells and extracts the contact can be indirect. Some results given as binding are weak or reduced against the parent protein; the word gives no strength.
How the values were obtained:
[1] = target: T1, BDNF, endogenous in human plasma (human) (UniProt P23560); assay: co-immunoprecipitation from human plasma with anti-BDNF antibody
T1 sequence (looked up): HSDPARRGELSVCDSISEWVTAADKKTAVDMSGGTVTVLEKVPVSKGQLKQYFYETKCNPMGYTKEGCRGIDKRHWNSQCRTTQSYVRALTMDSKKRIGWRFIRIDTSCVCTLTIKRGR

Protein sequences, listed by entry. Tags and fused reporters are not part of them. Residues count along the entry.
UniProt P08138, residues 29-250: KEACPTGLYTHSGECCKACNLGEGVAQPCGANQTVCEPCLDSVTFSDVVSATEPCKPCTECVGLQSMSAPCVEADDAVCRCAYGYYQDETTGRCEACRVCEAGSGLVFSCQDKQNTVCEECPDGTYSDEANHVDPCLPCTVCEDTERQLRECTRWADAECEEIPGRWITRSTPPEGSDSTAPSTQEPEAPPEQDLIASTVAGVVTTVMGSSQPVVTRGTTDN

[2] = target: T2, NT4/5, endogenous in human plasma (human) (UniProt P34130); assay: co-immunoprecipitation from human plasma with anti-NT4/5 antibody
T2 sequence (looked up): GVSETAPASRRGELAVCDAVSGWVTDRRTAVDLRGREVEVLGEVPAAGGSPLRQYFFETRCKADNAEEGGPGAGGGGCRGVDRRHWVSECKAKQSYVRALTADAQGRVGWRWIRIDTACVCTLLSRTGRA

[3] = target: T1, BDNF, endogenous in human plasma (human); assay: co-immunoprecipitation from human plasma, LC-MS/MS

Measured: binding

soluble p75NTR neurotrophin binding protein, p75NTR(NBP), endogenous in human plasma (from UniProt P08138 29-250) (receptor)
binds: all assays above

— US20150037335A1
